According to patent US8546338B2, “Self-assembling hydrogels based on dicephalic peptide amphiphiles” (Johnson & Johnson Consumer Companies, Inc., priority 2010, dated 2013):
At least one read-out could not be matched to a standard name with certainty. Some entries share one result that the patent states for a list of compounds.

Assay: Oscillating rheology, time sweep (kinetics of formation)
Assay type: physicochemical
Conditions: for Order of strength (by solubility enhancing region): 2 wt % gels in DMEM; for Order of strength (by solubility enhancing region) / Order of gel strength (by solubility enhancing region): time sweep; for Order of gel strength (by solubility enhancing region): 4 wt % gels, heading says PBS, text says DMEM; for Gel point (cross-over of G′ and G″), extrapolation of the curves: calcium chloride added, 25° C.
Procedure: Oscillating rheology by the parallel plates method (radius=25 mm) was performed on 400 μl gels to assess the mechanical strengths of gels. Time sweeps were performed to evaluate kinetics of formation at a constant strain rate of 1% and frequency of 1 rad/s. Strain sweeps were performed ranging from 1-100% strain in increments of 2% at a constant frequency of 1 rad/s. Cross-over of G′ and G″ was used to determine the gel point and point of breakdown. Time sweeps were initiated immediately after mixing the solutions that lead to DPA hydrogel formation. In the strain sweeps, the gels were allowed to form on the plate for 30 minutes before the measurement is initiated.
The gelation process was initiated on the plate at 25° C. by the addition of 10 μl of 100 mg/ml calcium chloride solution to a solution of the DPA in DMEM.

Row | Structure (SMILES) | Order of strength (by solubility enhancing region) | Order of gel strength (by solubility enhancing region) | Gel point (cross-over of G′ and G″), extrapolation of the curves (1 wt % DPA in DMEM) | Gel point (cross-over of G′ and G″), extrapolation of the curves (2 wt % DPA in DMEM)
1 | CCCCCCCCCCCCCCCC(=O)NC(C(=O)NCC(=O)N[C@@H](Cc1ccccc1)C(=O)NCC(=O)N[C@@H](Cc1ccccc1)C(=O)NCC(=O)N[C@@H](Cc1ccccc1)C(=O)NCC(=O)N[C@@H](CC(N)=O)C(=O)N[C@@H](CC(N)=O)C(=O)N[C@@H](CO)C(=O)O)C(=O)NCC(=O)N[C@@H](Cc1ccccc1)C(=O)NCC(=O)N[C@@H](Cc1ccccc1)C(=O)NCC(=O)N[C@@H](Cc1ccccc1)C(=O)NCC(=O)N[C@@H](CC(N)=O)C(=O)N[C@@H](CC(N)=O)C(=O)N[C@@H](CO)C(=O)O [Gly-Phe-Gly-Phe-Gly-Phe-Gly-Asn-Asn-Ser] | Asn-Asn-Ser>Gln-Gly-Ser>Gln-Gln-Ser | Asn-Asn-Ser>Gln-Gly-Ser>Gln-Gln-Ser |  | 
2 | CCCCCCCCCCCCCCCC(=O)NC(C(=O)NCC(=O)N[C@@H](Cc1ccccc1)C(=O)NCC(=O)N[C@@H](Cc1ccccc1)C(=O)NCC(=O)N[C@@H](Cc1ccccc1)C(=O)NCC(=O)N[C@@H](CCC(N)=O)C(=O)N[C@@H](CCC(N)=O)C(=O)N[C@@H](CO)C(=O)O)C(=O)NCC(=O)N[C@@H](Cc1ccccc1)C(=O)NCC(=O)N[C@@H](Cc1ccccc1)C(=O)NCC(=O)N[C@@H](Cc1ccccc1)C(=O)NCC(=O)N[C@@H](CCC(N)=O)C(=O)N[C@@H](CCC(N)=O)C(=O)N[C@@H](CO)C(=O)O [Gly-Phe-Gly-Phe-Gly-Phe-Gly-Gln-Gln-Ser] | Asn-Asn-Ser>Gln-Gly-Ser>Gln-Gln-Ser | Asn-Asn-Ser>Gln-Gly-Ser>Gln-Gln-Ser |  | 
3 | CCCCCCCCCCCCCCCC(=O)NC(C(=O)NCC(=O)N[C@@H](Cc1ccccc1)C(=O)NCC(=O)N[C@@H](Cc1ccccc1)C(=O)NCC(=O)N[C@@H](Cc1ccccc1)C(=O)NCC(=O)N[C@@H](CCC(N)=O)C(=O)NCC(=O)N[C@@H](CO)C(=O)O)C(=O)NCC(=O)N[C@@H](Cc1ccccc1)C(=O)NCC(=O)N[C@@H](Cc1ccccc1)C(=O)NCC(=O)N[C@@H](Cc1ccccc1)C(=O)NCC(=O)N[C@@H](CCC(N)=O)C(=O)NCC(=O)N[C@@H](CO)C(=O)O [Gly-Phe-Gly-Phe-Gly-Phe-Gly-Gln-Gly-Ser] | Asn-Asn-Ser>Gln-Gly-Ser>Gln-Gln-Ser | Asn-Asn-Ser>Gln-Gly-Ser>Gln-Gln-Ser |  | 
4 | CCCCCCCCCCCCCCCC(=O)NC(C(=O)NCC(=O)N[C@@H](Cc1ccccc1)C(=O)NCC(=O)N[C@@H](Cc1ccccc1)C(=O)NCC(=O)N[C@@H](Cc1ccccc1)C(=O)NCC(=O)N[C@@H](CCC(=O)O)C(=O)NCC(=O)N[C@@H](CCC(=O)O)C(=O)O)C(=O)NCC(=O)N[C@@H](Cc1ccccc1)C(=O)NCC(=O)N[C@@H](Cc1ccccc1)C(=O)NCC(=O)N[C@@H](Cc1ccccc1)C(=O)NCC(=O)N[C@@H](CCC(=O)O)C(=O)NCC(=O)N[C@@H](CCC(=O)O)C(=O)O [Gly-Phe-Gly-Phe-Gly-Phe-Gly-Glu-Gly-Glu] |  |  | 45 to 50 s | 45 to 50 s
